The values that follow are results of earlier work, collected in patent publication US20120115958A1, “LIQUID PHARMACEUTICAL FORMULATION CONTAINING PARACETAMOL” (Aziende Chim. Riun. Ang. Franc. A.C.R.A.F. S.p.A., priority 2008, published 2012).

The conditions of this series: at 20° C.

Consider `CC(=O)Nc1ccc(O)cc1` [paracetamol], for which the Solubility in water is given as 1.4 g/100 ml.
